Taken from: PubChem BioAssay AID504786 (Drosophila RNAi Screening Center, 2011)
Test: 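Fly genes required for HIF-dependent transcription when hypoxia is mimicked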 (primary screen). Cells: Drosophila S2 cells with a stable HIF luciferase reporter. Knock-down reagent: long dsRNA against Drosophila genes, about 0.2 µg dsRNA per well of a 384-well plate. Timing: three days of knock-down, then 20 h of DFO before reading. Challenge: desferrioxamine (DFO) at 100 µM, an iron chelator that mimics hypoxia, for 20 h. Measured: 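Firefly luciferase driven by the mouse ldh-a hypoxia-response element, measured after 20 h of 100 µM DFO; z-scores per plate, higher means more signal lost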. Scale: z-score: higher = stronger loss of HIF reporter signal.
The screen tested about 21,000 reagents; shown is a random part of those with a known target gene and a result. 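Primary screen; positive scores mean lost reporter signal, so the sign may be inverted from the usual convention.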 Further read-outs or replicates are left out here.

z-score, replicate 1, by gene and reagent
CG31288: DRSC14667 -0.4
twz: DRSC04069 -0.3
CG4229: DRSC10407 -0.2
sced: DRSC04990 -0.2
Or42a: DRSC04912 -0.3
Cpr47Ed: DRSC07331 -0.4
CG11162: DRSC19391 -0.2
CG15446: DRSC20518 -0.4
CG1907: DRSC15399 -0.4
Tob: DRSC20294 -0.4
CG2247: DRSC19844 -0.2
Ir84a: DRSC12510 -0.2
SPARC: DRSC14123 -0.4
SMC2: DRSC07544 -0.4
CG12947: DRSC14575 -0.2
TwdlR: DRSC14736 -0.3
Esyt2: DRSC16082 -0.3
CG2150: DRSC15420 -0.3
CG10444: DRSC05990 -0.3
CG11309: DRSC11650 -0.2
Kaz: DRSC14637 0
Lcp1Psi: DRSC05105 0.6
CG15343: DRSC18028 -0.3
CG42553: DRSC08356 -0.3
SecS: DRSC12222 -0.3
CG2528: DRSC03724 -0.2
CG15042: DRSC19618 -0.2
trv: DRSC13846 -0.4; DRSC14559 -0.3; DRSC14560 -0.3; DRSC14561 -0.3
hd: DRSC12316 -0.2
CG31259: DRSC14366 -0.3
CG32305: DRSC08614 -0.2
CG42715 (retired record): DRSC05499 0.1
magu: DRSC06832 -0.3
CG33060: DRSC09939 0
yellow-g: DRSC08575 -0.3
CG8839: DRSC07285 -0.3
woc: DRSC15928 0.2

As entered above.
For “z-score, replicate 1”, woc [DRSC15928] shows 0.2
Under “z-score, replicate 1”, CG15343 [DRSC18028] has -0.3
Under “z-score, replicate 1”, Kaz [DRSC14637] reads 0
CG8839 [DRSC07285], z-score, replicate 1 → -0.3
For “z-score, replicate 1”, SecS [DRSC12222] is entered as -0.3
Result for CG33060 [DRSC09939] under “z-score, replicate 1”: 0

Continued:
z-score, replicate 1, by gene and reagent
Uba2: DRSC11311 -0.6
Pus1: DRSC15548 0.1
gpp: DRSC12515 0.7; DRSC12516 0.1
CG34300: DRSC13977 -0.1
CG17597: DRSC02630 -0.3
CG32440: DRSC11480 0.1
apt: DRSC04671 1.2
CG33178: DRSC19950 -0.3
SNRPG: DRSC20207 1.7
Git: DRSC06620 -0.1
Samuel: DRSC02156 0; DRSC02401 -0.1; DRSC02402 -0.3
unc-119: DRSC18846 -0.3
crol: DRSC03514 -0.2
pon: DRSC18823 -0.4
CG18178: DRSC10302 -0.4
CG31515: DRSC13610 -0.3
Reg-2: DRSC08690 0.1
Pa1: DRSC19422 -0.3
CG42540: DRSC08327 -0.1; DRSC08328 -0.4; DRSC08593 1.9
CG34136: DRSC01833 0.6
Nup54: DRSC07282 0.3
cd: DRSC16157 -0.3
Nepl11: DRSC12333 -0.3
Cpr67B: DRSC10373 -0.4
ms(2)35Ci: DRSC01460 -0.1
hdm: DRSC18013 -0.3
l(2)05287: DRSC02151 0.5; DRSC02152 0.2
TORIP: DRSC10104 -0.3
vig: DRSC03630 -0.3; DRSC03631 -0.4
l(3)72Dp: DRSC10477 -0.3
Neu2: DRSC11819 -0.3
PIG-G: DRSC06823 0.1
CG16812: DRSC02519 -0.4
zld: DRSC19486 -0.7
MICU1: DRSC02752 -0.3
CG11986: DRSC14461 -0.4
